In the supplement of paper PMC12067093, “Discovery and optimisation of a covalent ligand for TRIM25 and its application to targeted protein ubiquitination” (Chemical Science, 2025):
The list shows a part of the results.

The chains behind the UniProt entries cited, without tags or fusion partners. Where a name states a change or a piece, a line headed by the entry shows the natural chain unless it says otherwise.
UniProt Q9ULJ7: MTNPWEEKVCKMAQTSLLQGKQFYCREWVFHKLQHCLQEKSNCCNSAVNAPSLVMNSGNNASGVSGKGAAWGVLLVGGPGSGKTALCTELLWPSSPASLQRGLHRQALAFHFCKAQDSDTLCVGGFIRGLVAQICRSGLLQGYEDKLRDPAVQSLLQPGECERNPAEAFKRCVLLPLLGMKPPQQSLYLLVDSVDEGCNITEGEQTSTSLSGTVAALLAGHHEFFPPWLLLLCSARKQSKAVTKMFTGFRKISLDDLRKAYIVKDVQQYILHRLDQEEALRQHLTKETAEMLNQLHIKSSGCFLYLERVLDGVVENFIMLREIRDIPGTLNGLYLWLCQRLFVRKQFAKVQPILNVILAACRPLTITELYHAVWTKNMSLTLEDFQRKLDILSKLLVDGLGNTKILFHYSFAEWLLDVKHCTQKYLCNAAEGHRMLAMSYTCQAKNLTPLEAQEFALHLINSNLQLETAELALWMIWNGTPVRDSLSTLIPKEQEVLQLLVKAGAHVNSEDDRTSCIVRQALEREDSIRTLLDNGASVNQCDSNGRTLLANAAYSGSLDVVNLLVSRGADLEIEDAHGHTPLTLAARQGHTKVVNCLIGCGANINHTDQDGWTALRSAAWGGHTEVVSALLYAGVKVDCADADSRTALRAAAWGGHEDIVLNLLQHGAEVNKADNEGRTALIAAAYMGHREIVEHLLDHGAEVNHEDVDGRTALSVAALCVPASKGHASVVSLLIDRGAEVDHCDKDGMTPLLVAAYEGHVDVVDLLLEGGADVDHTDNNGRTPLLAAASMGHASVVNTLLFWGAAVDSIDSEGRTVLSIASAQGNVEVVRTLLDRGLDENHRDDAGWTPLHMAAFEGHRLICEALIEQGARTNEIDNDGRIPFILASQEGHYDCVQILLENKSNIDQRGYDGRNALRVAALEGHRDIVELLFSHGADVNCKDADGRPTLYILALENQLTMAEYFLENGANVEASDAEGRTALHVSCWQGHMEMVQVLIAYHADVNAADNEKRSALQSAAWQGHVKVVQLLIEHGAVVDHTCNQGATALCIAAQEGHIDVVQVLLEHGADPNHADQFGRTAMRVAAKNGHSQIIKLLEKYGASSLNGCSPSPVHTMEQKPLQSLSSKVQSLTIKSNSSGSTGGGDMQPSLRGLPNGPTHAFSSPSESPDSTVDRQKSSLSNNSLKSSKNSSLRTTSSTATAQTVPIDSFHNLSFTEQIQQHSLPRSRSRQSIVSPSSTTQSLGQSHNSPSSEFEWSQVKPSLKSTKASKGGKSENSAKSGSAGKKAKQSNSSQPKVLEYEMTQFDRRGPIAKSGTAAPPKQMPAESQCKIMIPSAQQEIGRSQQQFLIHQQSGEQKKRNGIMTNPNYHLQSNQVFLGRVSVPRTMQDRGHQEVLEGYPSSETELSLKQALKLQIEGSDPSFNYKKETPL
UniProt Q96CW1: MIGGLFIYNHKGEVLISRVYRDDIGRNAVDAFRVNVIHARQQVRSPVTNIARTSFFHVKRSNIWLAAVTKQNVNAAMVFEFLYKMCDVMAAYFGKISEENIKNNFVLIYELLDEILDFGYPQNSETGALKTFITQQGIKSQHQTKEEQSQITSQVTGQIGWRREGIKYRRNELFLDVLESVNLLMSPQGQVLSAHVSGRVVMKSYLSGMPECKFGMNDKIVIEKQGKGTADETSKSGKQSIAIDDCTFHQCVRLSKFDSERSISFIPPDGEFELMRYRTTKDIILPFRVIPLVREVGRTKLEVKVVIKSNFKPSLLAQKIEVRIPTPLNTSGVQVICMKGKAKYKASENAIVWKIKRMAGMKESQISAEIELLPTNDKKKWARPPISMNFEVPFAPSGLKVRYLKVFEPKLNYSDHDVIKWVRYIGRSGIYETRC
UniProt O75179: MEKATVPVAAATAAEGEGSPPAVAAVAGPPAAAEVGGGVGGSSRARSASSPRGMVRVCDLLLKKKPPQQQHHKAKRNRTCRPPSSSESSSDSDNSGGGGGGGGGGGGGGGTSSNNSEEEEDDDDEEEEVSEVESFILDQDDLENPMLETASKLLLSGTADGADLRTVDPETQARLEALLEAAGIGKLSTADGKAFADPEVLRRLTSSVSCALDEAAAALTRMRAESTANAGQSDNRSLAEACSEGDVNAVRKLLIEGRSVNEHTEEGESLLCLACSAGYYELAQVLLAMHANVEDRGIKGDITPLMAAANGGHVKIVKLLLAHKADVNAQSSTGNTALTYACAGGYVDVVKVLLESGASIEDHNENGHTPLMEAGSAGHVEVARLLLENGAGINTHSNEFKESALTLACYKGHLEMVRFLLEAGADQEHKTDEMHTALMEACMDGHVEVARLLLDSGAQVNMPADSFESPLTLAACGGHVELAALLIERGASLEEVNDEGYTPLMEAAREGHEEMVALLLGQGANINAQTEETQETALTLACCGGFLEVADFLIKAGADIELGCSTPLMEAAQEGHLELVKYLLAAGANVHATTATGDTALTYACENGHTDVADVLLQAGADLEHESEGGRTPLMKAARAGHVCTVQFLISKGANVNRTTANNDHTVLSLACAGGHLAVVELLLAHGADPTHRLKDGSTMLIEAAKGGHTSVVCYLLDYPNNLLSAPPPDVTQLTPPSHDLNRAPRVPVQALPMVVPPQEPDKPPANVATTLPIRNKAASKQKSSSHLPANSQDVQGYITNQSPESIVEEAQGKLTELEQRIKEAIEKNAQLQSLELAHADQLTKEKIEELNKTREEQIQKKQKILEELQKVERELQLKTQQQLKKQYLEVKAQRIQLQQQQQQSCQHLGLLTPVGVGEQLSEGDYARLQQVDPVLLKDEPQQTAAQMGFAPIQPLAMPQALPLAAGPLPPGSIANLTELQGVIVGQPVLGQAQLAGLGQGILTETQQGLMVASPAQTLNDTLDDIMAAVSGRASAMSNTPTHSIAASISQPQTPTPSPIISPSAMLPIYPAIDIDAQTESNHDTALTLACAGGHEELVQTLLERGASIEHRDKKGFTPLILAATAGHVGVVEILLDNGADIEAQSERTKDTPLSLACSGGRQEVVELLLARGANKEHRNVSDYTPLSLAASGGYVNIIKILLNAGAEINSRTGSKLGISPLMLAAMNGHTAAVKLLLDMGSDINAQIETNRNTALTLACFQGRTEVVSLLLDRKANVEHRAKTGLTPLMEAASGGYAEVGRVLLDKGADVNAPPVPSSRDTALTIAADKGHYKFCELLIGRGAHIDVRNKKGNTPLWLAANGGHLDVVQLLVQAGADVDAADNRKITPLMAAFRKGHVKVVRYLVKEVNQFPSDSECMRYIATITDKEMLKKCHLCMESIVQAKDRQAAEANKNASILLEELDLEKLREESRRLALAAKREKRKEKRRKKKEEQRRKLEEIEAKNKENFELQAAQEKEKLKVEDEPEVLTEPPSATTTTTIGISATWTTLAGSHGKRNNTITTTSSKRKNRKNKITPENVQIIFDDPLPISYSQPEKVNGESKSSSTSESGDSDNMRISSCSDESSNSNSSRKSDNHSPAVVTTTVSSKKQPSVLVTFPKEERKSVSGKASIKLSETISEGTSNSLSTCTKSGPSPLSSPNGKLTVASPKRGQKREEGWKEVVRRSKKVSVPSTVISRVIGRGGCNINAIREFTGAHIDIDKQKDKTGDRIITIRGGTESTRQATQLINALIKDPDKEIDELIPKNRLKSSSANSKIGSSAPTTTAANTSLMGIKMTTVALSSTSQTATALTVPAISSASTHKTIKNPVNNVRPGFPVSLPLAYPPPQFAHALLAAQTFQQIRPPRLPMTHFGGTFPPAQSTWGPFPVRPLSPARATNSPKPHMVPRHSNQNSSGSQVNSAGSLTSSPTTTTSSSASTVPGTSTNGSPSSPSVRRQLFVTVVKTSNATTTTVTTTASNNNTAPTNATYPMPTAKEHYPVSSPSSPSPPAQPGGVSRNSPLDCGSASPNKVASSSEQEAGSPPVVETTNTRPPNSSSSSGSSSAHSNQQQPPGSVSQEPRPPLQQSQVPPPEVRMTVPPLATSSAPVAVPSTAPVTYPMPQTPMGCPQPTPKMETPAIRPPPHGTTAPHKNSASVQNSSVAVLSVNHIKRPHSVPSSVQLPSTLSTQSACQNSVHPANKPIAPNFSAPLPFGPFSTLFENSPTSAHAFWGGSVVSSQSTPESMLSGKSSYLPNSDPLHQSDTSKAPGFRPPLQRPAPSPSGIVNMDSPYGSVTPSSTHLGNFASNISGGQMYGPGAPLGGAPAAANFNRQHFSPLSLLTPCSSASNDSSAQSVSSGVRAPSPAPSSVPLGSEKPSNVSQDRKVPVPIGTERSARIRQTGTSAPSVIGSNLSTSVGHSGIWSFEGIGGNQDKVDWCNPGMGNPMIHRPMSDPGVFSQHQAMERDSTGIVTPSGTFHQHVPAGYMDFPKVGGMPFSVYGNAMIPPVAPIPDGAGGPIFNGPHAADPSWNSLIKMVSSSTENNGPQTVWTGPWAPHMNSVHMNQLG
UniProt Q9H0R1: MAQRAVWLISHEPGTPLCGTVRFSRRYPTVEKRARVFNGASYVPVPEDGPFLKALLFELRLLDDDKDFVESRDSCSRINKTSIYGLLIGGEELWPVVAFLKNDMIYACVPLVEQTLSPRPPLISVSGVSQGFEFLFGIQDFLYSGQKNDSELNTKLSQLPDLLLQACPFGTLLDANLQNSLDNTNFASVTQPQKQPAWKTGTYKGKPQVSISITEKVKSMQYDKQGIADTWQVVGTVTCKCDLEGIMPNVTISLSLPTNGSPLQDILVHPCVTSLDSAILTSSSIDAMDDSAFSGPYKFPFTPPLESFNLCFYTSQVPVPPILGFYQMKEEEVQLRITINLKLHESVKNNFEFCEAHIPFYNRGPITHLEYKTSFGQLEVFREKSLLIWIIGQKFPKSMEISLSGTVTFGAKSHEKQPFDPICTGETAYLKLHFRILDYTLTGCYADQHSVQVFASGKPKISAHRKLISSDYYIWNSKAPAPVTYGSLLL
UniProt O94973, whole entry, looked up: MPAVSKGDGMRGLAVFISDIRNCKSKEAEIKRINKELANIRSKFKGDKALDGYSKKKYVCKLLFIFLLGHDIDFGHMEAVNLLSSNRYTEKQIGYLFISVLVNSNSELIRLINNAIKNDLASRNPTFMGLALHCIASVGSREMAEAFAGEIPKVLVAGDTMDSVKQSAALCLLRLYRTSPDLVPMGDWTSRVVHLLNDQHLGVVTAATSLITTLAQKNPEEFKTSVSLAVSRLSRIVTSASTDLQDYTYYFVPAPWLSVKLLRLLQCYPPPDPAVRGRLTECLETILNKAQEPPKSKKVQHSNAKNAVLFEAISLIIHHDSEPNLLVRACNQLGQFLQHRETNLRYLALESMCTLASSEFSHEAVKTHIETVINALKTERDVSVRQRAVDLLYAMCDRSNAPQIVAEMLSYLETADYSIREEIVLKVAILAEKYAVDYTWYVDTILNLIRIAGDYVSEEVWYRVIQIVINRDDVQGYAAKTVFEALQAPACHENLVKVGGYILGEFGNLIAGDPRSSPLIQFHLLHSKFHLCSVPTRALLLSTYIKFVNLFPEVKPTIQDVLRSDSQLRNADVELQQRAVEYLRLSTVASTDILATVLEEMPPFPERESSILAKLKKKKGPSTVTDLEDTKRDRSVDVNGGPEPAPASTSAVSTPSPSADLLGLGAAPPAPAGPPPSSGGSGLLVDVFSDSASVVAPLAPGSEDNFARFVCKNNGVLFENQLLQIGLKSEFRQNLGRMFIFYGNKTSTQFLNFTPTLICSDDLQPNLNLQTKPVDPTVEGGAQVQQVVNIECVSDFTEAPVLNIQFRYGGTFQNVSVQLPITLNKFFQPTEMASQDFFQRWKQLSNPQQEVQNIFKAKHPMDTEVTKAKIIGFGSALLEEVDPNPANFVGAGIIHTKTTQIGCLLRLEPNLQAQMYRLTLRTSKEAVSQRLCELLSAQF
UniProt Q9BZZ5: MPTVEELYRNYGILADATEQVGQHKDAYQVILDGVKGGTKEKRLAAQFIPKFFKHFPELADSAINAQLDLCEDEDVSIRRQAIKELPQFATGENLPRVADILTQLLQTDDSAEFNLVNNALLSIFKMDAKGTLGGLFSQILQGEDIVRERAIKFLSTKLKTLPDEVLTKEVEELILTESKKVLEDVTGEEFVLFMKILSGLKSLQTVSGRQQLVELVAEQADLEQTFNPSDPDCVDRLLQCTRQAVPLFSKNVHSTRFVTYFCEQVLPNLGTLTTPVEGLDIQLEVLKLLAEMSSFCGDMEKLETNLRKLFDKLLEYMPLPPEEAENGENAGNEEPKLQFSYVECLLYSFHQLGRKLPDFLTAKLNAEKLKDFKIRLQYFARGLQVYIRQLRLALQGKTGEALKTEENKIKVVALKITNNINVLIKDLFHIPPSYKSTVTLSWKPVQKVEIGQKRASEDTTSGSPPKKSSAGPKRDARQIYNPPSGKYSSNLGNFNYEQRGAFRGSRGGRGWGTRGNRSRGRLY

Compound: Cc1cc(ccc1-c1ccccc1)C(=O)N1CCCN(CC1)C(=O)CCl [compound 10]
Assay: probe-labelled cysteine peptide fold change vs DMSO (competition) (log2 fold change); higher = less target engagement (more negative = stronger competition)
Conditions: THP-1, incubation time: 4 h
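Further: competitive profiling in live THP-1 cells: cysteine peptides tagged with an iodoacetamide desthiobiotin (IA-DTB) probe, intensity after compound treatment relative to DMSO-treated cells.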

Target | probe-labelled cysteine peptide fold change (10 µM) | probe-labelled cysteine peptide fold change (50 µM)
ANKRD11_Q6UB99_1339_ESACLPEK (UniProt Q6UB99) | -0.0313 | -0.174
ANKHD1_Q8IWZ3_643_ATANNDHTVVSLACAGGHLAVVELLLAHGADPTHR (UniProt Q8IWZ3) | 0.218 | 0.0558
ANKRD50_Q9ULJ7_161_LRDPAVQSLLQPGECER (UniProt Q9ULJ7) | 0.0521 | -0.0666
ANKRD39_Q53RE8_107_ASYCGHTEIAR (UniProt Q53RE8) | 0.075 | -0.305
APLP2_Q06481_343_FIYGGCGGNR (UniProt Q06481) | -0.427 | -0.392
ANKLE1_Q8NAG6_124_GLELLLSQGADPALRDQDGLRPLDLALQQGHLECAR (UniProt Q8NAG6) | 0.169 | 0.0214
AP2B1_P63010_391_CVSTLLDLIQTK (UniProt P63010) | 0.0285 | 0.291
ANKMY2_Q8IV38_341_MVIYCDQTCQK (UniProt Q8IV38) | -0.0709 | 0.00724
ANXA2_P07355_262_GDLENAFLNLVQCIQNK (UniProt P07355) | 0.0399 | 0.572
APEX1_P27695_296_LDYFLLSHSLLPALCDSK (UniProt P27695) | 0.17 | 0.246
AP1B1_Q10567_930_CRAPEVSQHVYQAYETILK (UniProt Q10567) | 0.104 | -0.118
ANKLE2_Q86XL3_702_NGLCHPLNHSR (UniProt Q86XL3) | 0.00413 | -0.333
AP2M1_Q96CW1_246_QSIAIDDCTFHQCVR (UniProt Q96CW1) | 0.118 | -0.0483
ANKRD11_Q6UB99_1712_EVLPASPRPDQSRPTGVPTPTSVLSCPSYEEVMHTPR (UniProt Q6UB99) | 0.0549 | 0.219
APEX1_P27695_93_GLDWVKEEAPDILCLQETK (UniProt P27695) | -0.315 | -0.706
ANKRD44_Q8N8A2_921_CALLILDK (UniProt Q8N8A2) | -0.127 | -0.402
AP2B1_P63010_144_KTAAVCVAK (UniProt P63010) | -0.0881 | -0.732
ANKRD45_Q5TZF3_116_GYTLLHCAAAWGR (UniProt Q5TZF3) | 0.272 | 0.322
AP4B1_Q9Y6B7_534_ILCSPK (UniProt Q9Y6B7) | -0.0169 | 0.287
AP1G2_O75843_354_HRPTVVECLR (UniProt O75843) | -0.0711 | -0.0489
ANKRD27_Q96NW4_795_CLLDSNAKPNKK (UniProt Q96NW4) | 0.102 | -0.773

Target | probe-labelled cysteine peptide fold change (10 µM) | probe-labelled cysteine peptide fold change (50 µM)
ANKLE2_Q86XL3_844_RLFLFGEEPSKLDQDVLAALECADVDPHQFPAVHR (UniProt Q86XL3) | -0.195 | -0.319
ANKRD44_Q8N8A2_547_QCLELLLER (UniProt Q8N8A2) | 0.177 | -0.299
AP2B1_P63010_123_ITEYLCEPLRK (UniProt P63010) | -0.0728 | -0.143
APAF1_O14727_675_AHEDEVLCCAFSTDDRFIATCSVDK (UniProt O14727) | 0.114 | -0.0285
ANKRD27_Q96NW4_899_IMELLQVVPSCVASLDDVAETDRK (UniProt Q96NW4) | -0.178 | -0.611
ANKRD28_O15084_598_GHVECVDVLINQGASILVK (UniProt O15084) | -0.0607 | -0.351
APAF1_O14727_115_TVLCEGGVPQRPVVFVTR (UniProt O14727) | -0.147 | -0.00415
ANKRD27_Q96NW4_795_CLLDSNAK (UniProt Q96NW4) | 0.214 | -0.253
AP1B1_Q10567-3_914_IQPGNPSCTLSLK (UniProt Q10567) | 0.133 | 0.133
APAF1_O14727_1083+1091_DFVCHQGTVLSCDISHDATK (UniProt O14727) | -0.0364 | -0.18
AP4M1_O00189_235_IGLTEEFCVGK (UniProt O00189) | -0.0533 | -0.00473
ANKRD52_Q8NB46_733_GAVTGCEDCLAALLDHDAFVLCR (UniProt Q8NB46) | 0.0081 | -0.433
AP2M1_Q96CW1_212_SYLSGMPECK (UniProt Q96CW1) | -0.0637 | 0.212
ANKRD17_O75179_409_ESALTLACYK (UniProt O75179) | 0.231 | 0.0632
APEX1_P27695_93_EEAPDILCLQETK (UniProt P27695) | -0.436 | -0.0795
APOBEC3C_Q9NRW3_70_CFLSWFCDDILSPNTK (UniProt Q9NRW3) | 0.106 | 0.12
APOBEC3G_Q9HC16_221_GRHETYLCYEVER (UniProt Q9HC16) | 0.0238 | -0.0407
ANKRD17_O75179_564_AGADIELGCSTPLMEAAQEGHLELVK (UniProt O75179) | 0.0101 | -0.0606
ANKZF1_Q9H8Y5_713_CLQDHR (UniProt Q9H8Y5) | 0.0306 | 0.0292
AP3D1_O14617_60_ANAVCK (UniProt O14617) | 0.214 | 0.233
AP5M1_Q9H0R1_354_NNFEFCEAHIPFYNR (UniProt Q9H0R1) | 0.000119 | 0.0553

Target | probe-labelled cysteine peptide fold change (10 µM) | probe-labelled cysteine peptide fold change (50 µM)
ANKHD1_Q8IWZ3_213_SLAEACSDGDVNAVRK (UniProt Q8IWZ3) | 0.0471 | 0.0108
AOAH_P28039_329_NHCNHR (UniProt P28039) | -0.145 | 0.0168
ANKRD13A_Q8IZ07_5_SSACDAGDHYPLHLLVWK (UniProt Q8IZ07) | -0.198 | -0.145
AOC1_P19801_391_YLDVGWGLGSVTHELAPGIDCPETATFLDTFHYYDADDPVHYPR (UniProt P19801) | 0.166 | 0.4
AP2M1_Q96CW1_246+251_QSIAIDDCTFHQCVR (UniProt Q96CW1) | 0.119 | -0.117
ANKRD44_Q8N8A2_368+388_CGIHSMFPLHLAALNAHSDCCR (UniProt Q8N8A2) | -0.329 | -0.698
ANKRD44_Q8N8A2_819_FIGNPFTPLHCAIINDHGNCASLLLGAIDSSIVSCR (UniProt Q8N8A2) | -0.184 | -0.0251
APEH_P13798_149+152_HGPVYEDDCFGCLSWSHSETHLLYVAEK (UniProt P13798) | -0.00931 | -0.199
APOBEC3G_Q9HC16_356_HCWDTFVDHQGCPFQPWDGLDEHSQDLSGR (UniProt Q9HC16) | -0.032 | -0.101
ANKRD17_O75179_1260_NTALTLACFQGR (UniProt O75179) | 0.0822 | 0.0585
AP2A1_O95782_225_TCVSLAVSR (UniProt O95782) | 0.0673 | 0.11
ANO6_Q4KMQ2_261_RQSEDPSCPNER (UniProt Q4KMQ2) | -0.211 | -0.0905
AP2A2_O94973_903_TTQIGCLLR (UniProt O94973) | 0.00156 | 0.0573
AP2A1_O95782_283_LVECLETVLNK (UniProt O95782) | -0.0236 | 0.0113
AP2B1_P63010_565_PLISEETDLIEPTLLDELICHIGSLASVYHKPPNAFVEGSHGIHR (UniProt P63010) | 0.119 | -0.142
ANXA6_P08133_59_QEVCQSYK (UniProt P08133) | 0.0581 | 0.0246
APAF1_O14727_177_DHSLLEGCFPGGVHWVSVGK (UniProt O14727) | -0.0502 | -0.155
API5_Q9BZZ5_297_LLAEMSSFCGDMEK (UniProt Q9BZZ5) | 0.176 | 0.385
ANO6_Q4KMQ2_105_QAYESNLICHGLQLEATR (UniProt Q4KMQ2) | -0.181 | -0.421
APBB1IP_Q7Z5R6_220_THCDCNVDWCLYEIYPELQIER (UniProt Q7Z5R6) | 0.118 | 0.153
API5_Q9BZZ5_71_HFPELADSAINAQLDLCEDEDVSIRR (UniProt Q9BZZ5) | 0.0504 | 0.252

Target | probe-labelled cysteine peptide fold change (10 µM) | probe-labelled cysteine peptide fold change (50 µM)
ANKLE2_Q86XL3_454_TPEDVICER (UniProt Q86XL3) | -0.0836 | -0.0782
ANKRD27_Q96NW4_720_CAPAQK (UniProt Q96NW4) | -0.195 | -0.956
ANKRD44_Q8N8A2_704_EANVDTVDILGCTALHR (UniProt Q8N8A2) | -0.0426 | -0.232
APIP_Q96GX9_188_MAHAMNEYPDSCAVLVR (UniProt Q96GX9) | 0.165 | 0.102
AP5M1_Q9H0R1_444_ILDYTLTGCYADQHSVQVFASGKPK (UniProt Q9H0R1) | -0.0225 | 0.148
ANXA7_P20073_327_LLVSMCQGNR (UniProt P20073) | 0.05 | 0.208
AP2A1_O95782_213_VVHLLNDQHMGVVTAAVSLITCLCK (UniProt O95782) | -0.147 | -0.256
APOBR_Q0VD83_257_ACESTR (UniProt Q0VD83) | 0.411 | 0.403
ANKRD44_Q8N8A2_854_TPLHAAAFADHVECLQLLLR (UniProt Q8N8A2) | -0.0323 | -0.112
ANP32E_Q9BTT0_87_CPNLTYLNLSGNK (UniProt Q9BTT0) | 0.00877 | -0.115
APOBR_Q0VD83_895_CGDYHPEGEAPR (UniProt Q0VD83) | -0.0609 | 0.0559
AP2A1_O95782_215_VVHLLNDQHMGVVTAAVSLITCLCK (UniProt O95782) | 0.000516 | 0.00546
AP2A2_O94973_330_ACNQLGQFLQHR (UniProt O94973) | 0.0043 | 0.00133
AP3M2_P53677_236_LLDDVSFHPCVR (UniProt P53677) | 0.0842 | 0.131
APOBEC3G_Q9HC16_243_GFLCNQAPHK (UniProt Q9HC16) | 0.0129 | 0.0615
AP2A2_O94973_396_AVDLLYAMCDR (UniProt O94973) | 0.187 | 0.327
ANKRD17_O75179_242_SLAEACSEGDVNAVR (UniProt O75179) | 0.0211 | 0.0642
ANKRD50_Q9ULJ7_113_QALAFHFCK (UniProt Q9ULJ7) | 1.31 | 1.7
ANKRD44_Q8N8A2_420_TCLHAAAAGGNVECIK (UniProt Q8N8A2) | -0.0237 | -0.154
